Measurements from the supplement of paper PMC12889115.
The list shows a part of the results. These are raw signals, not scaled to a control.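 Primary screen: polymyxin B was added at a level permeabilizing Salmonella outer membranes while sparing inner membranes. DMSO wells, both with and without polymyxin B, established maximum growth. Plate-to-plate variation meant each plate was ranked on its own, and the lowest-OD600 compounds were selected as hits.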

System: Salmonella enterica serovar Typhimurium SL1344
Assay: bacterial growth OD600 after 18 h with compound and polymyxin B; higher = more bacterial growth (less inhibition)
Settings: 50 µM, Mueller-Hinton broth

| Compound | bacterial growth OD600 (polymyxin B 1 µg/mL) | bacterial growth OD600 (polymyxin B 0.75 µg/mL) |
| --- | --- | --- |
| CCN(CC)C(=O)C1CCCN(C(=O)c2ccc3nc(-c4cccc(OC)c4)oc3c2)C1 (stereo not given) | 0.957 |  |
| CCOC(=O)C1(Cc2cccc(OC)c2)CCN(Cc2ccccc2OC)CC1 | 0.933 |  |
| Cc1c[nH]c(CN(C)C2CCCN(C3Cc4ccccc4C3)C2)n1 (stereo not given) | 0.939 |  |
| Cc1csc(SCC(=O)N2CCCC(CNS(=O)(=O)c3cccs3)C2)n1 (stereo not given) | 1.06 |  |
| COc1ccc(CCCNC(=O)c2ccc(N3CCN(C(C)C)CC3)nc2)cc1 | 1.09 |  |
| OCC1(Cc2ccccc2Cl)CCN(Cc2cccc(F)c2F)CC1 | 0.732 |  |
| CC(C)Cn1cc(C(=O)N2CCCCCC2)c(=O)c(C(=O)N2CCN(c3cccc(Cl)c3)CC2)c1 |  | 0.97 |
| COC(=O)CCC(=O)NC1CCCc2nc(-c3ccccc3)ncc21 (stereo not given) | 1.14 |  |
| CCn1ccnc1CN(C)Cc1nc(Cc2cccc(C(F)(F)F)c2)no1 | 0.794 |  |
| CC(C)N(CC1CCC(=O)N1)c1ccc(-c2nc(Cc3ccccc3)no2)cn1 (stereo not given) |  | 0.52 |
| COC(=O)[C@@H]1CCCN1C1CCN(c2ccc(CC(=O)NCCc3ccccc3OC)cc2)CC1 |  | 0.829 |
| CCOC(=O)c1n[nH]cc1CN1CCOC(Cc2ccc(OC)cc2)C1 (stereo not given) |  | 0.872 |
| COC(c1ccc2c(c1)CN(C(=O)c1cc3ncccn3n1)CCO2)C1CCCCC1 (stereo not given) |  | 0.004 |
| CCOC(=O)CNC(=O)N(C)CC1CCCN(CCc2ccccc2OC)C1 (stereo not given) | 0.949 |  |
| CCN(CC1CCCO1)C(=O)C1CCN(c2nc(C)c3ccc(S(C)(=O)=O)cc3n2)CC1 (stereo not given) |  | 0.815 |
| CCOc1ccc2nc(N3CCCC(C(=O)NCCn4nc(C)cc4C)C3)nc(C)c2c1 (stereo not given) |  | 0.866 |
| CCn1ccnc1CNC(=O)c1cc(COc2ccc3sc(C)nc3c2)on1 |  | 0.959 |
| COc1cc(CN2CCC(CO)(CCCc3ccccc3)CC2)cc(OC)c1OC | 0.951 |  |
| O=C(c1ccc2oc(Cc3ccccc3)nc2c1)N(CCO)Cc1ccccc1 |  | 0.993 |
| COc1ccc(CC2(CCC(=O)N3CCC(Cc4ccccc4)CC3)CCC(=O)N2)c(F)c1 (stereo not given) |  | 0.744 |
| O=C(NC1(c2ccccc2)CC1)c1ccc(OC2CCN(C(=O)C3CC3)CC2)cc1 | 1.1 |  |
| COc1cccc(-c2ccccc2NC(=O)C2CCN(Cc3ccccc3F)CC2)c1 | 0.416 |  |
| CCCCNC(=O)c1cc(NC(=O)COC)c2c(c1)ncn2CCc1ccccc1 |  | 0.793 |
| COc1ccc(CN2CCN(Cc3ccccc3F)C(CCO)C2)c(F)c1 (stereo not given) | 0.906 |  |
| CN(CC1CCCCO1)C(=O)CCc1nnc(CCc2c[nH]c3ccccc23)o1 (stereo not given) | 0.806 |  |
| O=C([C@H]1CC[C@H](O)CC1)N1CCC(C2CCN(Cc3cccc(F)c3F)CC2)C1 (stereo not given in full) |  | 0.868 |
| COc1cc(C(=O)NC2(c3ccccc3)CC2)ccc1OC1CCN(C(C)=O)CC1 | 0.977 |  |
| CCN(CC)CCNC(=O)C1CCN(C2CCN(Cc3cccc(C)n3)CC2)CC1 | 1.05 |  |
| Cc1nc2ccc(C(=O)N3CCc4c(cnc(C)c4CNC(=O)Cc4ccsc4)C3)cc2nc1C |  | 0.827 |
| Cc1cc(C(=O)N(C)C(Cc2ccccc2)C2CCN(C(=O)CSc3ncccn3)CC2)n(C)n1 (stereo not given) |  | 1 |

Exported with bars between the fields: 2 of the compounds above.
Compound | bacterial growth OD600 (polymyxin B 1 µg/mL) | bacterial growth OD600 (polymyxin B 0.75 µg/mL)
O=C(c1ccc2oc(Cc3ccccc3)nc2c1)N(CCO)Cc1ccccc1 |  | 0.993
COc1ccc(CC2(CCC(=O)N3CCC(Cc4ccccc4)CC3)CCC(=O)N2)c(F)c1 (stereo not given) |  | 0.744
